Reference: doi:10.1101/2023.09.11.557111
These are yes or no findings as the source states them, for the method shown. Binding seen in cells or lysates may run through a third protein. Some binding calls cover weakened binding; strength is not graded here.

The chains behind the UniProt entries cited, without tags or fusion partners. Where a name states a change or a piece, a line headed by the entry shows the natural chain unless it says otherwise.
UniProt Q8BVE8, whole entry: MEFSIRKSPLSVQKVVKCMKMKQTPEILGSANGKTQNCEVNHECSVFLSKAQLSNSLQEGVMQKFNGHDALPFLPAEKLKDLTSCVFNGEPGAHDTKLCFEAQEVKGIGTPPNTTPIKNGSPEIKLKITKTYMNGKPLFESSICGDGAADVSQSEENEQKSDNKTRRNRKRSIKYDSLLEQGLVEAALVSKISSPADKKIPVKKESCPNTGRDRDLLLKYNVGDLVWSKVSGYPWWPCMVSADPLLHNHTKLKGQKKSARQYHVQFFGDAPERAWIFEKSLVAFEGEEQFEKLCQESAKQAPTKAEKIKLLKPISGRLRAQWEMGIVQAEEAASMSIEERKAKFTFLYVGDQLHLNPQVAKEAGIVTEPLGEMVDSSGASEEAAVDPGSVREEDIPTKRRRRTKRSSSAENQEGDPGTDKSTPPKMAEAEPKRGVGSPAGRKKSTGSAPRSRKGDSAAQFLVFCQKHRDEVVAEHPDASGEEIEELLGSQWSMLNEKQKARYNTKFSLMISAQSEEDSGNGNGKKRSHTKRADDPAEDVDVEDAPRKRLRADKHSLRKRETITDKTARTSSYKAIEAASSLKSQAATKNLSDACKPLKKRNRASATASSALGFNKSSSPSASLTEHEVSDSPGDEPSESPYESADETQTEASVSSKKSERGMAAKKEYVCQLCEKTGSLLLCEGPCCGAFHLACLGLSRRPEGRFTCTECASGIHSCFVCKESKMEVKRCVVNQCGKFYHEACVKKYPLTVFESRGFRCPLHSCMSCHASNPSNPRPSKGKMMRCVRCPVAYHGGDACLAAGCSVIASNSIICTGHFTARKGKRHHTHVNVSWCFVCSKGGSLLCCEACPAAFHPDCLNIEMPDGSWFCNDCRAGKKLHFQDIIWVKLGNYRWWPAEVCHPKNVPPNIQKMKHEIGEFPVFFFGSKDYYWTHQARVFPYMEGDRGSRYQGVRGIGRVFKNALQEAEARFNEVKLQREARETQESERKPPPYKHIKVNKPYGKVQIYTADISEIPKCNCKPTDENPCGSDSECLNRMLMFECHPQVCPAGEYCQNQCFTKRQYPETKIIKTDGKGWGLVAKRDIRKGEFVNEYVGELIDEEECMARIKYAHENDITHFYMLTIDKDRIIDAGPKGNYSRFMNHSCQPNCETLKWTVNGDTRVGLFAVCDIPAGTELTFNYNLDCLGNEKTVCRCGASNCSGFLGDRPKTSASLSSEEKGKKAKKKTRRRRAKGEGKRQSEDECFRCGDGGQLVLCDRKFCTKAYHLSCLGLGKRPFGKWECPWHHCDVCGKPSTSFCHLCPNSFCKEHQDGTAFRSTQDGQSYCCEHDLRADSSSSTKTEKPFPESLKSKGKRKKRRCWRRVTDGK
UniProt O96028, whole entry, looked up, stated change not applied: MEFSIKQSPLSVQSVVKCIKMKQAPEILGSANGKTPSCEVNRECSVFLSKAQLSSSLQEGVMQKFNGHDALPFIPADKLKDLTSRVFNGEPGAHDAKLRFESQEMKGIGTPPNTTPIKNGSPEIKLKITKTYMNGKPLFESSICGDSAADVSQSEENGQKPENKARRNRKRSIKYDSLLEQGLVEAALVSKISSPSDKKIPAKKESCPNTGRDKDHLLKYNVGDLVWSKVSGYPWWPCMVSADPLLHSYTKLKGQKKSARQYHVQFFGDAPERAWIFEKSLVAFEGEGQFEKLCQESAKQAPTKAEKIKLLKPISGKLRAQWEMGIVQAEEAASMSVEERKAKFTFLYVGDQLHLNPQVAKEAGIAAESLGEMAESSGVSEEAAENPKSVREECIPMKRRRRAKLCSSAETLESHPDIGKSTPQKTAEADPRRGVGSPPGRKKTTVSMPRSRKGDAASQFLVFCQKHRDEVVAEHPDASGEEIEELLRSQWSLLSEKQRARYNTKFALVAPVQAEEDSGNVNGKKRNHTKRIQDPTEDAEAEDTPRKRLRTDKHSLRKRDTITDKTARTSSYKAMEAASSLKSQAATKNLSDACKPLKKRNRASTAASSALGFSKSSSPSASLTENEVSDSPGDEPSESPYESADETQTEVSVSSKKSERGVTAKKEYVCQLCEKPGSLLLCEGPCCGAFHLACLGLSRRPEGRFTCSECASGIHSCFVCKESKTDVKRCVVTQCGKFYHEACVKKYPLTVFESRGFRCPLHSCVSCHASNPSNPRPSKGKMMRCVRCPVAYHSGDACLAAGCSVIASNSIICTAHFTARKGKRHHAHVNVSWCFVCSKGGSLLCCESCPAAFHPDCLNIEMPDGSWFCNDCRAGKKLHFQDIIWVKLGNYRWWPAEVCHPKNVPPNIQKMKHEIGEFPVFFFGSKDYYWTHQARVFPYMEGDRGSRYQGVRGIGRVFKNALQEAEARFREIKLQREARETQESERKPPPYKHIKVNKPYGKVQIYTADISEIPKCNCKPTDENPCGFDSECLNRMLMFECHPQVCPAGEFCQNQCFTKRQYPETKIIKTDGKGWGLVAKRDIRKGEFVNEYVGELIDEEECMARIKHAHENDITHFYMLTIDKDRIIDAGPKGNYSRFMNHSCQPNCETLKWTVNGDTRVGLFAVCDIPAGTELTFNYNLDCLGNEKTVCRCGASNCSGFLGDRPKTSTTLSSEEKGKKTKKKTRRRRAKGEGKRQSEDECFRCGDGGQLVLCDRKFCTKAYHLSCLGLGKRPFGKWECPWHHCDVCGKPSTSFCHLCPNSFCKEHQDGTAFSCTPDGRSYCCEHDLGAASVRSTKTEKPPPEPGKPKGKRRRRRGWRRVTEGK
UniProt Q04207, whole entry: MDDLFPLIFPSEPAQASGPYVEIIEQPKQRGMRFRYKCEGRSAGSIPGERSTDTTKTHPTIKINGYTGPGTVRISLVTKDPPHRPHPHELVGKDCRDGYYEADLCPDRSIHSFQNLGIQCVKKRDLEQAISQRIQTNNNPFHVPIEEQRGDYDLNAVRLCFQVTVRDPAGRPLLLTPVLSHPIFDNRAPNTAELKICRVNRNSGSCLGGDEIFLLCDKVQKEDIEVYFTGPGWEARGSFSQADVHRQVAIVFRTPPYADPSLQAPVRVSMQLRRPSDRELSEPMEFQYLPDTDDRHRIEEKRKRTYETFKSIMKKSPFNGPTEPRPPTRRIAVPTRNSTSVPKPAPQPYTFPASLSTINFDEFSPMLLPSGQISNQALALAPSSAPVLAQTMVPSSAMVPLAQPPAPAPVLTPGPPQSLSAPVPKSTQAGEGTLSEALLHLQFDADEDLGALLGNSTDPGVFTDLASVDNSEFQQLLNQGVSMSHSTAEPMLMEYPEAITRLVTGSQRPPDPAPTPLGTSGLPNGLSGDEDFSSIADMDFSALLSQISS
UniProt Q04206, whole entry: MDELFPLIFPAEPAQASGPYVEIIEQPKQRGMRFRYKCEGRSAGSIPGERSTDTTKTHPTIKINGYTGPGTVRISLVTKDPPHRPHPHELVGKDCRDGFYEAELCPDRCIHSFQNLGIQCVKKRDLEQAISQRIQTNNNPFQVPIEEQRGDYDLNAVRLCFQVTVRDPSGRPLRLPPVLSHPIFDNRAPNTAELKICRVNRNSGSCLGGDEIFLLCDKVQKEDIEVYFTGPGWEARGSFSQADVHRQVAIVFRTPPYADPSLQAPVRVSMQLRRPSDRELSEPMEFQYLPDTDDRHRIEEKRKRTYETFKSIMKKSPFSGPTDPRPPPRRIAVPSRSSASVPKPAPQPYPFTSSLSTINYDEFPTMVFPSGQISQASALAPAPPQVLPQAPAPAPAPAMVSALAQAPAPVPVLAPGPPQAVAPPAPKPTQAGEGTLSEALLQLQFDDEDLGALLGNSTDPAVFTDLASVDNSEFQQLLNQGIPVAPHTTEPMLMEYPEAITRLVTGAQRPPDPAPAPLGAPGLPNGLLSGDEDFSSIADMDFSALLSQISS

Columns and labels:
[1] = biological target: NSD2 (endogenous, KPC1199 cells) (mouse (endogenous in KPC1199)) (UniProt Q8BVE8); assay: co-IP
[2] = biological target: Flag-NSD2 Y1179A (UniProt O96028); assay: co-IP

Substance | binding [1] | binding [2]
p65 (endogenous, KPC1199 cells) (from UniProt Q04207 1-549) | binds | –
HA-p65 (full-length) (from UniProt Q04206 1-551) | – | binds
